Common to all, as to assay: restriction protection (CBA)
In one data set the target is T1, rOsGD1-B3 (rice) (UniProt Q0D5G4).
T1 sequence (looked up): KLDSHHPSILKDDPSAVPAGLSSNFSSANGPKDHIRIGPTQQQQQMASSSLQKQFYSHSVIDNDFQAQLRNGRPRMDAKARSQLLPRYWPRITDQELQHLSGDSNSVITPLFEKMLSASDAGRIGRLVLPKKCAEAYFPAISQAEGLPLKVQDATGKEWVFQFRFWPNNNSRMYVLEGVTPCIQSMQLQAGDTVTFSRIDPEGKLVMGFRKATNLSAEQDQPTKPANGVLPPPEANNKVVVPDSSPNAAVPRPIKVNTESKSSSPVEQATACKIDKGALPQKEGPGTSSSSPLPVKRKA
To be noted: CBA: restriction enzyme buffer, 1-7 ug protein, 30 min at 37 C then 1 h digestion at 37 C, recombinant protein, probe letters rebuilt from the primers and the genome.

By UniProt entry, the sequences of proteins in these tests, tags left out. Where a name states a change or a piece, a line headed by the entry shows the natural chain unless it says otherwise.
UniProt Q40704: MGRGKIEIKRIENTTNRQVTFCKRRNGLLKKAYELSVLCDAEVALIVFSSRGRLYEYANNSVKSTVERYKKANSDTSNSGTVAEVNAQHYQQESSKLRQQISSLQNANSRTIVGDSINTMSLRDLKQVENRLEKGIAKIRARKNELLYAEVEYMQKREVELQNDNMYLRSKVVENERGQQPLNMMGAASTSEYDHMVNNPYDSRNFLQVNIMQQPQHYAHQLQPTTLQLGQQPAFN

In another data set the target is rOsMADS3 (rice) (UniProt Q40704). The settings on record: NsiI, up to 7 ug; CBA: restriction enzyme buffer, 150 ng DNA, 1-7 ug protein, 15 ul, 30 min at 37 C then 1 h digestion at 37 C; recombinant protein; protein details: GST (pGEX4T-2); probe letters rebuilt from the primers and the genome.
Another data set deals with T2, rOsVAL2-B3 (rice) (UniProt Q6Z3U3).
T2 sequence (looked up): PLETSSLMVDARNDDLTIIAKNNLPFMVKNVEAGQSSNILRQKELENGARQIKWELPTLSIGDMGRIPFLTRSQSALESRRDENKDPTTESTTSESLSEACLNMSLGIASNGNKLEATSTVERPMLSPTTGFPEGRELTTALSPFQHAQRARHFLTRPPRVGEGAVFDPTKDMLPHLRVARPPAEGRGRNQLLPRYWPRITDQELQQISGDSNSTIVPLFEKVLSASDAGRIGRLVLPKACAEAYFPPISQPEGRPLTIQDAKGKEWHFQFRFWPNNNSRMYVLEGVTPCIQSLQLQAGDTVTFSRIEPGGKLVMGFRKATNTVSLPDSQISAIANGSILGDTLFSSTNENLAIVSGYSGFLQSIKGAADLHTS
To be noted: NsiI, same inhibitory effect as 5 ug rOsGD1-B3, 150 ng DNA in 15 ul, CBA: restriction enzyme buffer, 1-7 ug protein, 30 min at 37 C then 1 h digestion at 37 C, recombinant protein, residues 144-517, protein details: 6xHis (pGoldI), probe letters rebuilt from the primers and the genome.

For some of these results: Protein sequences can lack the tags named with them. For some of these results: Construct, isoform or probe ends are uncertain for at least one entry. For some of these results: A negative result means that nothing was seen under these conditions. For some of these results: The direction of at least one scale is not stated here.

Take “CCATGTAGGACTTTTAGCTTATGTGGCACTATATTAATTAAGAGAGAGAGTGAAGAGAGGAAGAAACTGGGTCTCATGCAAGACACAGCTTCAACACGAGAACCTATGCACTAAACACTATCAAGTTTTGTATTGGGAGAGAATAGTGTCTTCATAATATATAAAGAATAAATATGATTGATAGAGAAGAGAGATGATATATTTATTAATGGCCCACTTTAAGAGACCATAGGTTGTAGAGTGTAGTTTCTATTGTGATGTCTTATTGACATGGCACCATAGGCACTGCTTATAGACACTATGAGTTGGGACTGCCCTAAGGCGTGCATATATGCATGCAATTAATTAGTACCTCTGTTGGATTAAATTATGATTTTTTTTAAATTATCGACCCTCATGATCTCT (double strand) [M3 RY-DNA 405 bp]”: the binding result with rOsGD1-B3 (rice) (NsiI and MmeI, 150 ng DNA, 15 ul, residues 342-640, protein details: 6xHis (pGoldI)) was “binds”.

In the case of “GCACCCAATAGAATTAGAGATCATGAGGGTCGATAATTTAAAAAAAATCATAATTTAATCTAGAAGAGGTACTAATTAATTGCATGCATATATGCACGCCTTAGGGCAGTCCCAACTCATAGTGTCTATAAGCAGTGCCTATGGTGCCATGTCAATAAGACATCACAATAGAAACTACACTCTACAACCTATGGTCTCTTAAAGTGGGCCATTAATAAATATATCATCTCTCTTCTCTATCAATCATATTTATTCTTTATATATTATGAAGACACTATTCTCTCCCAATACAAAACTTGATAGTGTTTAGTGCATAGGTTCTCGTGTTGAAGCTGTGTCTTGCATGAGACCCAGTTTCTTCCTCTCTTCACTCTCTCTCTTAATTAATATAGTGCCACATAAGCTAAAAGTCCTACATGG (double strand) [WT RY-DNA 420 bp]”, the binding signal with rOsGD1-B3 (rice) (NsiI, dose for inhibition, 150 ng DNA in 15 ul, residues 342-640, protein details: 6xHis (pGoldI)) was determined as 5 µg protein; in the data set with rOsVAL2-B3 (rice), 3 µg protein. Also, in the data set with rOsMADS3 (rice), the binding result is recorded as “no binding”.

The values are drawn from paper PMC4753479.
